According to PubChem BioAssay AID651640 (Broad Institute, 2012):
Screen size: about 350,000 compounds; about 6,000 (1.7%) were called active. These results got no clear call from the source, so the numbers are uncertain. Rule as the data show it: active = CPE inhibition above about 20% (passing the limit was not always enough); inconclusive = no clear call, values can overlap the other calls; tested in BHK-21 cells.

Experiment: inhibitors of DENV2 cytopathic effect, primary screen, cell-based, plate reader, single concentration (AID 651640);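 also: 0% = median of neutral control wells and 100% = median of positive control wells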
Details: DENV2-infected cells, cytopathic effect rescue, at 9.99 µM, hits give high values

Structure (SMILES)	CPE inhibition
O=c1[nH]c2ccccc2n1C1CCN(C(c2ccccc2)c2nnnn2C2CCCCC2)CC1 (centres undefined)	inconclusive: 23.3%
O=P1(N(CCCl)CCCl)SCCCS1	inconclusive: 23.1%
CSc1ccccc1C(=O)NCC1(N2CCCCC2)CCCCC1	inconclusive: 25.5%
O=C(NCC1(N2CCCCC2)CCCCC1)c1ccco1	inconclusive: 30.4%
